The supplement of paper PMC10849652
Some of the results follow.

Chains of the proteins cited; added tags and fusions are not shown. Lines headed by an entry give the natural chain unless they say otherwise; changes in a name come on top.
UniProt P63302, whole entry, looked up: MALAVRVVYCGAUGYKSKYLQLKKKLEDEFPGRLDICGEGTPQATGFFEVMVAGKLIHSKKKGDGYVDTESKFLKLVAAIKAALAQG
UniProt Q8N9R8: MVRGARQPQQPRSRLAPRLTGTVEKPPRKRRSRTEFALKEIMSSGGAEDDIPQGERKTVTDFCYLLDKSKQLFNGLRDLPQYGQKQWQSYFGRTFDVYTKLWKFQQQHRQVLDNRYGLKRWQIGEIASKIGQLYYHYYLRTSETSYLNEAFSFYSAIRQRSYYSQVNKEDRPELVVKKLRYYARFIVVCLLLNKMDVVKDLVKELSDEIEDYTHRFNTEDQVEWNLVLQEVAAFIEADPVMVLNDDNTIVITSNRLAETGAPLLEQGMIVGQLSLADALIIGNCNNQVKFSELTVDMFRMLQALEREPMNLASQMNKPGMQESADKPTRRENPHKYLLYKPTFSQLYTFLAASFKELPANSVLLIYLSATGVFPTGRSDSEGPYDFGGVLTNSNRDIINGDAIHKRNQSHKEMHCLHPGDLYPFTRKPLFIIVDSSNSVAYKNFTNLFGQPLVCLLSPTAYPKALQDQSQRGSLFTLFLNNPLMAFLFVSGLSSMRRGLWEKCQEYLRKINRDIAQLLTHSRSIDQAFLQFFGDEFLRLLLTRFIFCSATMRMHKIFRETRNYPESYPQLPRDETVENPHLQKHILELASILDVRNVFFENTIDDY
UniProt Q9UIL1: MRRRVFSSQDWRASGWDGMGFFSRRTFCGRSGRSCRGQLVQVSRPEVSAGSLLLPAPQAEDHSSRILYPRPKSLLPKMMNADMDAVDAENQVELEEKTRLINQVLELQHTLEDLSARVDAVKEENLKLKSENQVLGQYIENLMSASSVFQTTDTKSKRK
UniProt O00560: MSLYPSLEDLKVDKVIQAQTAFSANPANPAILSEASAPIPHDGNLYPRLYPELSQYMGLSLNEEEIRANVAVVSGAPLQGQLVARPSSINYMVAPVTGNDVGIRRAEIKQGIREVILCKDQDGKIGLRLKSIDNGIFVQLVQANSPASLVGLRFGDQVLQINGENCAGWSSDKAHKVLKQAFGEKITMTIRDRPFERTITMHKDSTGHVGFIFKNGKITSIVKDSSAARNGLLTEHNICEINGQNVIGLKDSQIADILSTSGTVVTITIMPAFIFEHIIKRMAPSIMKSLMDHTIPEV
UniProt Q92503: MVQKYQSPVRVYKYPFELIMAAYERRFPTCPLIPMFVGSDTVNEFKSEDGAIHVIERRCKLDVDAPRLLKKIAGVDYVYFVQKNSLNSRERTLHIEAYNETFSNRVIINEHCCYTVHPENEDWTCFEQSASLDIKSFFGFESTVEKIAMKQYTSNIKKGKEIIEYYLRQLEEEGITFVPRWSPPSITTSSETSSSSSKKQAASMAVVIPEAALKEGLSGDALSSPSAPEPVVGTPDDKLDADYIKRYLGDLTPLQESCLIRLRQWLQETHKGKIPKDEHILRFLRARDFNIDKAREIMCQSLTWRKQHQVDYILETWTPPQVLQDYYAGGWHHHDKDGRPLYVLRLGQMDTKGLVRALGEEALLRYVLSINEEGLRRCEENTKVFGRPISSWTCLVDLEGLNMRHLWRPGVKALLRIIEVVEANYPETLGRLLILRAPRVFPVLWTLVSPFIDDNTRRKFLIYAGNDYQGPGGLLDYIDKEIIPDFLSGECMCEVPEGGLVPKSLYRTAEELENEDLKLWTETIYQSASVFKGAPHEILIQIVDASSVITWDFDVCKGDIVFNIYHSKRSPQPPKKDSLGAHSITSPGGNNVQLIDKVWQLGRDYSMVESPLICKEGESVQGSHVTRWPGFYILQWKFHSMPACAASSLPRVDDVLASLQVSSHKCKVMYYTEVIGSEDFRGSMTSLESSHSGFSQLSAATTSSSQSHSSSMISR
UniProt O95969: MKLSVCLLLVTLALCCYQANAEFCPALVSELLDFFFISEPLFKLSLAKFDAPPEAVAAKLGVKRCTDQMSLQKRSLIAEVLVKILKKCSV
UniProt Q9H4L4: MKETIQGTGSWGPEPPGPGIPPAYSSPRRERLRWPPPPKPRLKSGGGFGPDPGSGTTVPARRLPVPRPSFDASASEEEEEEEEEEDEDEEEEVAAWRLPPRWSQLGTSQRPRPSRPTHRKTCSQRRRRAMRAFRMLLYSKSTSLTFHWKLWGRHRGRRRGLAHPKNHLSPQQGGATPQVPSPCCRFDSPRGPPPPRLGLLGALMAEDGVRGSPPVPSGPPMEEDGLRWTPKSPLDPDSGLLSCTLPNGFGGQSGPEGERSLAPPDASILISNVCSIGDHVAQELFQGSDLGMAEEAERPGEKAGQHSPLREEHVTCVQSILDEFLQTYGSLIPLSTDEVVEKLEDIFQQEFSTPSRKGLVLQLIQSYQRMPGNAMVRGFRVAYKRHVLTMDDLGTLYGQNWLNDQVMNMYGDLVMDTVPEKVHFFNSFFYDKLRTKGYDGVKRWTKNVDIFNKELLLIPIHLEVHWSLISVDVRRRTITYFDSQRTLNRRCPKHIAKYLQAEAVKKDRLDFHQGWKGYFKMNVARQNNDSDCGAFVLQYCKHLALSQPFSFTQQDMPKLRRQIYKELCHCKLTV
UniProt Q9NTN9: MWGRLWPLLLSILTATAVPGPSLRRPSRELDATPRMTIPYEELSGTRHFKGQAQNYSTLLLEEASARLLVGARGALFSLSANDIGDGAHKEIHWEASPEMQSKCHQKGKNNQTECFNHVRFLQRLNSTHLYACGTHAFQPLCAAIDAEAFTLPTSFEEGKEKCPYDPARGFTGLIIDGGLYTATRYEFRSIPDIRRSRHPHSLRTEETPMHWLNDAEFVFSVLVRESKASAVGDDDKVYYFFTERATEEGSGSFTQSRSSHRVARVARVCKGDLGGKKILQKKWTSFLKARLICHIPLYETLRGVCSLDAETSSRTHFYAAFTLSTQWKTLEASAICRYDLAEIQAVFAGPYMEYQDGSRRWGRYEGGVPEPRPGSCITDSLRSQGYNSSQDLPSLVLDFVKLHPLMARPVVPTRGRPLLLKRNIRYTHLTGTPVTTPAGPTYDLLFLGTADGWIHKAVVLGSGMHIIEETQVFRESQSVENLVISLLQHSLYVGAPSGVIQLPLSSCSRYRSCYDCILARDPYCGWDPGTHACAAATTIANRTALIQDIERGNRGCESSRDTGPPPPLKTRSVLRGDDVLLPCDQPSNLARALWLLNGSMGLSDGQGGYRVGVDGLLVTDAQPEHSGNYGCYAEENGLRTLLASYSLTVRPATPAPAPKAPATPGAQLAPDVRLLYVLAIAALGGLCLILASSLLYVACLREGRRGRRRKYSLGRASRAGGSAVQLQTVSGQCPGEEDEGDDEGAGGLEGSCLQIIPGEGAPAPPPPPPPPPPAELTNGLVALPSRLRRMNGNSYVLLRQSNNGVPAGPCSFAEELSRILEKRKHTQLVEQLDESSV
UniProt P62341, whole entry, looked up: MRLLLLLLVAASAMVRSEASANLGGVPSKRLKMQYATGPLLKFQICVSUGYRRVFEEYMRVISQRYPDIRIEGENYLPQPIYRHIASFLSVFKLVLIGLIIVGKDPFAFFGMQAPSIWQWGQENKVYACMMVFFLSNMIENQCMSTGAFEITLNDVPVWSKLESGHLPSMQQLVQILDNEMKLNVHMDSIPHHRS
UniProt A6NKF1: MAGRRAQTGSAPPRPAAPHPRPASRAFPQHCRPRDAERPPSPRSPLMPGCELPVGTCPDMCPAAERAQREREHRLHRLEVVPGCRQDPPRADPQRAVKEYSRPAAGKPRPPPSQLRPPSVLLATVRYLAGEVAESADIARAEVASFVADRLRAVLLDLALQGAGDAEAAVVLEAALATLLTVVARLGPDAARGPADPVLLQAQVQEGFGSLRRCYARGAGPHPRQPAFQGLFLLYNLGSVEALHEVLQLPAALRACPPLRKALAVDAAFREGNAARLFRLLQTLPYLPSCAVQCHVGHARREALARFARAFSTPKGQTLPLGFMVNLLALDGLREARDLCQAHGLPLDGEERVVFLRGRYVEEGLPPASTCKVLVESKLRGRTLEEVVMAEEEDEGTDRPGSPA
UniProt Q9Y467: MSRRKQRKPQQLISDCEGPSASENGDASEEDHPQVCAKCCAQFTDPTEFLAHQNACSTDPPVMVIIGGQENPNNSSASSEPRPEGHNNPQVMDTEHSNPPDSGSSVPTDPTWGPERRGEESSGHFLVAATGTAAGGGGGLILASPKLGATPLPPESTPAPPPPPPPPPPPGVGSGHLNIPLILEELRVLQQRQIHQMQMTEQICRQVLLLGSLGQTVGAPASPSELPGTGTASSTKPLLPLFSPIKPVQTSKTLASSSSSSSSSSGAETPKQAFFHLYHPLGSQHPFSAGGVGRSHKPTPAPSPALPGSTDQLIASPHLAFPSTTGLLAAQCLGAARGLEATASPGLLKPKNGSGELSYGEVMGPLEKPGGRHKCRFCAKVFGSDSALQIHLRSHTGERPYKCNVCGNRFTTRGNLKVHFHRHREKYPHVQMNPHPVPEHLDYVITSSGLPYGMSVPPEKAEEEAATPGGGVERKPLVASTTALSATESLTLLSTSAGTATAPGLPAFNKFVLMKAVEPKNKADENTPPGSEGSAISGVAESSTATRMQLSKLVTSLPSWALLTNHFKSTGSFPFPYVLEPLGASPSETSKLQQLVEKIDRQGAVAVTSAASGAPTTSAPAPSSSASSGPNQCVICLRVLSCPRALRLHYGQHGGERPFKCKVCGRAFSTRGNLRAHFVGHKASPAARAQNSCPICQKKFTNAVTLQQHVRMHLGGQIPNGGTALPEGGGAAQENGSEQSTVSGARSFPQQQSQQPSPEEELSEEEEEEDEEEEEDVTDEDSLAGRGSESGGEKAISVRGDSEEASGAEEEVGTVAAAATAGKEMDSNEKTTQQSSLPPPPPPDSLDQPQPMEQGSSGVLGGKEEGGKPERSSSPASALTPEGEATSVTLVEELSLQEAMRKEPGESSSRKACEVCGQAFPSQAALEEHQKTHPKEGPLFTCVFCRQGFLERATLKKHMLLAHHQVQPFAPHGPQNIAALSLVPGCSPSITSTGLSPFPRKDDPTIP
UniProt Q9Y2G9: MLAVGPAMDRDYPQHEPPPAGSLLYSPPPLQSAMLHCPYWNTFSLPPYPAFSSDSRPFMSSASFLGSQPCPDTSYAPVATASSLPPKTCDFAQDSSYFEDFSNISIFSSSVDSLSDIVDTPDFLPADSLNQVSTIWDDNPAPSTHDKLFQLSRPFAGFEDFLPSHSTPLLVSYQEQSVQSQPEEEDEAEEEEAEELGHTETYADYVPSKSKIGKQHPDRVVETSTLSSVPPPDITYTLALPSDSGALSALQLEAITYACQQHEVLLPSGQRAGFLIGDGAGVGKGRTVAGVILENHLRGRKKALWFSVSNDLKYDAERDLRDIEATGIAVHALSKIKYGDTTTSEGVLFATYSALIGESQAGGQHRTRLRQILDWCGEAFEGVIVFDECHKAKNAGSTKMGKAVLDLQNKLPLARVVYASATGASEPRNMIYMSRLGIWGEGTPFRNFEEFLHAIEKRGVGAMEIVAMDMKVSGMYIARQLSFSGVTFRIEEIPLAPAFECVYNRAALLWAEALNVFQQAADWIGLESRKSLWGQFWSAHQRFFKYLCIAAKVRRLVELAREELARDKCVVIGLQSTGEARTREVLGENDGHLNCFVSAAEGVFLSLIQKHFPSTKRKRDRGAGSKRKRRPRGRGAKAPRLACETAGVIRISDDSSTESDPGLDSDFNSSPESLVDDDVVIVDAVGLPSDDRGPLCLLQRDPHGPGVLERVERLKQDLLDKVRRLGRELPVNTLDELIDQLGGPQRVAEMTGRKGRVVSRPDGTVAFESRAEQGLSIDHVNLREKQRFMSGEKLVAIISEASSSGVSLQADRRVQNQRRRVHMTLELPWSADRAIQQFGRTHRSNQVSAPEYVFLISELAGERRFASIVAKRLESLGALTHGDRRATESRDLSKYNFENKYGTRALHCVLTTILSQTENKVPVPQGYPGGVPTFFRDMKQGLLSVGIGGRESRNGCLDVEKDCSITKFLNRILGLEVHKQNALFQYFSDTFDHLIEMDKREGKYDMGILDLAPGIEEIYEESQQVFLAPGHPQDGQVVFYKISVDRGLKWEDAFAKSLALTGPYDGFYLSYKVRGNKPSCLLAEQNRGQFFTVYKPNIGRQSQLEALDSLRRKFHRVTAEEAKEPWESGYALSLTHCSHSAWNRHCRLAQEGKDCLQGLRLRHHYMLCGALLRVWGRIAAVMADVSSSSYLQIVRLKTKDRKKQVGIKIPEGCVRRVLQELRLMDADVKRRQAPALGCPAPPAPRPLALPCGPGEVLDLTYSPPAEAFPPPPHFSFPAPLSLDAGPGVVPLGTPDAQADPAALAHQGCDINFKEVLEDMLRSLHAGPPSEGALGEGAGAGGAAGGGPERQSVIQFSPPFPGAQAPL
UniProt Q9BWG6: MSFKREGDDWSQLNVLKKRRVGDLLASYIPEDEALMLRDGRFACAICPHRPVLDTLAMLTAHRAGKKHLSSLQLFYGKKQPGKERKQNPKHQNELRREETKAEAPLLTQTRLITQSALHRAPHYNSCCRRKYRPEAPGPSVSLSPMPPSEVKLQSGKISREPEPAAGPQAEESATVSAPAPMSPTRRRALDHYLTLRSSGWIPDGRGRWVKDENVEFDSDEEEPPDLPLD

How the values were obtained:
Assay in all cases: log2 fold change, soluble protein after heating vs DMSO (PISA); higher = thermal stabilisation; K562 lysate, 10 uM; active = over 0.2 and 3.5 SD of the protein, either way, in both replicates (recomputed)
[1] = compound: Cc1sc2c(c1C)C(c1ccc(Cl)cc1)=N[C@@H](CC(=O)OC(C)(C)C)c1nnc(C)n1-2
Outline: (§1)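 Soluble protein was defined as the supernatant remaining after 21,000xg for 90 min, following pooling of heated aliquots and adjustment to 0.5% NP-40 at 4°C. Before that, crude K562 extract at 1 mg/mL protein in PBS pH 7.4 with 1 mM MgCl2 was treated with 10 μM compound for 30 min and heated for 3 min across 48°C-58°C. Quantification used TMTpro 16plex LC-MS/MS with channel sums equalised, and values are log-two fold changes in thermal stability relative to solvent controls from duplicates.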

[2] = compound: c1ccc([C@@H]2C[C@H]2NC2CCNCC2)cc1
Outline: as §1

[3] = compound: CC1=C2C(=CC=C1)N=C(N(C2=O)C3=CC=CC=C3C)CN4C=NC5=C(N=CN=C54)N
Outline: as §1

[4] = compound: C1=CC=C(C=C1)[C@H](COC2=CC3=C(C=C2)NC(=O)N3)NC(=O)C4=CC=CN(C4=O)CC5=CC(=C(C=C5)F)F
Outline: as §1

[5] = compound: CC1=C(SC2=C1C(=N[C@H](C3=NN=C(N32)C)CC(=O)N)C4=CC=C(C=C4)Cl)C
Outline: as §1

SENP7 (UniProt Q9BQF6)
log2 fold change [1]: inactive: 0.232 | log2 fold change [2]: inactive: -0.036

SAGE1 (UniProt Q9NXZ1)
log2 fold change [1]: inactive: 0.03 | log2 fold change [2]: inactive: -0.002

SDHD (UniProt O14521)
log2 fold change [3]: inactive: 0.17 | log2 fold change [1]: inactive: -0.017 | log2 fold change [2]: inactive: 0.1

SELENOW (UniProt P63302)
log2 fold change [2]: inactive: 0.075

SCAI isoform 2 (UniProt Q8N9R8)
log2 fold change [4]: inactive: -0.271 | log2 fold change [5]: inactive: -0.104 | log2 fold change [3]: inactive: -0.055 | log2 fold change [2]: inactive: 0.183

SEPTIN8 (UniProt F8W8I8)
log2 fold change [1]: inactive: -0.019 | log2 fold change [2]: inactive: -0.26

SC5D (UniProt O75845)
log2 fold change [2]: inactive: -0.043

SEC31A (UniProt H0YAB3)
log2 fold change [4]: inactive: -0.046 | log2 fold change [5]: inactive: -0.015 | log2 fold change [1]: inactive: 0.01 | log2 fold change [2]: inactive: -0.004

SELENON (UniProt Q9NZV5)
log2 fold change [1]: inactive: 0.274

SASH1 (UniProt O94885)
log2 fold change [4]: inactive: -0.006 | log2 fold change [5]: inactive: 0.095 | log2 fold change [1]: inactive: -0.024 | log2 fold change [2]: inactive: 0.012

SCOC (UniProt Q9UIL1)
log2 fold change [1]: inactive: 0.015

SELENOI (UniProt Q9C0D9)
log2 fold change [4]: inactive: -0.044 | log2 fold change [5]: inactive: -0.188 | log2 fold change [1]: inactive: -0.191

SEC16A isoform 3 (UniProt O15027)
log2 fold change [1]: inactive: -0.006

SDCBP isoform 2 (UniProt O00560)
log2 fold change [4]: inactive: -0.056 | log2 fold change [5]: inactive: 0.027 | log2 fold change [1]: inactive: 0.058 | log2 fold change [2]: inactive: -0.063

SEC14L1 isoform 2 (UniProt Q92503)
log2 fold change [3]: inactive: 0.069

SBSN (UniProt Q6UWP8)
log2 fold change [2]: inactive: -0.001

SCGB1D2 (UniProt O95969)
log2 fold change [4]: inactive: -0.369 | log2 fold change [5]: inactive: -0.163 | log2 fold change [1]: inactive: -0.015 | log2 fold change [2]: inactive: 0.104

SAE1 (UniProt M0R286)
log2 fold change [3]: inactive: 0.085 | log2 fold change [1]: inactive: -0.062

SAMD1 (UniProt Q6SPF0)
log2 fold change [1]: inactive: -0.052 | log2 fold change [2]: inactive: 0.108

SCARB2 isoform 2 (UniProt Q14108)
log2 fold change [4]: inactive: 0.007 | log2 fold change [5]: inactive: 0.058 | log2 fold change [1]: inactive: -0.044 | log2 fold change [2]: inactive: -0.016

SELENOO (UniProt Q9BVL4)
log2 fold change [1]: inactive: -0.077 | log2 fold change [2]: inactive: -0.067

SENP3 (UniProt Q9H4L4)
log2 fold change [3]: inactive: -0.101 | log2 fold change [1]: inactive: 0.134 | log2 fold change [2]: inactive: 0.09

SCGB2A1 (UniProt O75556)
log2 fold change [2]: inactive: -0.043

SEMA4G isoform 2 (UniProt Q9NTN9)
log2 fold change [3]: inactive: 0.105 | log2 fold change [1]: inactive: 0.021 | log2 fold change [2]: inactive: 0.066

SELENOT (UniProt P62341)
log2 fold change [4]: inactive: -0.254 | log2 fold change [5]: inactive: 0.134 | log2 fold change [1]: inactive: -0.232 | log2 fold change [2]: inactive: 0.181

SATB2 (UniProt Q9UPW6)
log2 fold change [3]: inactive: -0.019 | log2 fold change [1]: inactive: 0.021 | log2 fold change [2]: inactive: -0.045

SAC3D1 (UniProt A6NKF1)
log2 fold change [4]: inactive: 0.001 | log2 fold change [5]: inactive: 0.056 | log2 fold change [2]: inactive: 0.214

SALL2 (UniProt Q9Y467)
log2 fold change [4]: inactive: -0.042 | log2 fold change [5]: inactive: 0.036 | log2 fold change [1]: inactive: 0.098 | log2 fold change [2]: inactive: -0.168

SBNO2 (UniProt Q9Y2G9)
log2 fold change [3]: inactive: 0.082 | log2 fold change [2]: inactive: 0.113

SAP130 isoform 3 (UniProt Q9H0E3)
log2 fold change [3]: inactive: -0.054 | log2 fold change [1]: inactive: -0.125 | log2 fold change [2]: inactive: 0.074

SARM1 (UniProt Q6SZW1)
log2 fold change [2]: inactive: 0.272

SALL1 (UniProt Q9NSC2)
log2 fold change [2]: inactive: 0.299

SCNM1 (UniProt Q9BWG6)
log2 fold change [1]: inactive: -0.332 | log2 fold change [2]: inactive: 0.014

SCG3 (UniProt Q8WXD2)
log2 fold change [3]: inactive: -0.023 | log2 fold change [1]: inactive: 0.002 | log2 fold change [2]: inactive: -0.023

SDR39U1 (UniProt Q9NRG7)
log2 fold change [4]: inactive: 0.599 | log2 fold change [5]: inactive: -0.238 | log2 fold change [2]: inactive: -0.141

SDHB, A0A087WXX8
log2 fold change [3]: inactive: 0.169 | log2 fold change [2]: inactive: -0.096

SDC3 (UniProt O75056)
log2 fold change [1]: inactive: -0.205
